# Test results: publication PMC6925144, “A prospective compound screening contest identified broader inhibitors for Sirtuin 1” (Scientific Reports, 2019)
# Sequences of proteins named here, by UniProt entry; tags and fusion partners are left off. Residues count along the entry.
# UniProt Q96EB6, 2-747 limits assumed: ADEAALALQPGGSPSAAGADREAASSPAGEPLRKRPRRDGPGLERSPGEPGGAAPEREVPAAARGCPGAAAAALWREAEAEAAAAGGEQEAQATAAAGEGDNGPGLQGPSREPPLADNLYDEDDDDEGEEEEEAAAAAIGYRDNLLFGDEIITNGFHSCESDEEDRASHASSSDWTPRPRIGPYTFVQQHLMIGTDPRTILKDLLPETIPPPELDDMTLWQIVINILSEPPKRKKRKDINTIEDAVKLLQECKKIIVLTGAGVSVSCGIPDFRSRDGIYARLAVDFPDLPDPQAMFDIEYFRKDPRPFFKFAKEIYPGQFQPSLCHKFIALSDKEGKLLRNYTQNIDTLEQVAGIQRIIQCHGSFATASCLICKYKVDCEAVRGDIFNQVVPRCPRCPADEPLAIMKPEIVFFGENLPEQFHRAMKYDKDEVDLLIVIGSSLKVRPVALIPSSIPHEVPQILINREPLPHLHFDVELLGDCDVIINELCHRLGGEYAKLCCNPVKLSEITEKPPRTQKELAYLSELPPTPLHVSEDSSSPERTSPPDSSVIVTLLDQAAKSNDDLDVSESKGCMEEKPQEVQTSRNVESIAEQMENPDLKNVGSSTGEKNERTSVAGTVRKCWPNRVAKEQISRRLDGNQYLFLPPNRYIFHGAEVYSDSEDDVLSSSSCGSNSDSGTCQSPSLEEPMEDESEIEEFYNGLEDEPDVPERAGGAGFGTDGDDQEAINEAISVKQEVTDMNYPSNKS
# Over roughly 3,200 compounds, “TSA(without NAD+) / Primary screening (TSA) / delta Tm (K)” has its median near -0.07; the highest 2% begin near 0.37. This is one part of the list.
# Biological target: NAD-dependent deacetylase Sirtuin 1 (human, UniProt Q96EB6)
# Experiment: primary screen, delta tm
# Parameters: single well (n = 1)
# Conditions: 10 µM
# Method in brief: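 Thermal shift of Sirtuin 1 measured without NAD+, compound at 10 µM (n = 1); value is ΔTm, with hits defined as ΔTm > 0.45 K or < −1.5 K. Hits retested at 5, 10, 20 µM (n = 4) and counterscreened on bovine carbonic anhydrase and ABL1 SH2 domain.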
row,SMILES,TSA(without NAD+) / Primary screening (TSA) / delta Tm (K)
1,C#CCNC(=O)Cc1c(C)nc2c(c1C)c(=O)[nH]n2C,-0.13 K
2,CC(C)C(NC(N)=O)C(=O)Nc1ccc(CCO)cc1 (stereo not drawn),-0.12 K
3,CC(OC(=O)c1ccc2c(c1)S(=O)(=O)c1ccccc1C2=O)C(=O)Nc1ncnc2[nH]cnc12 (stereo not drawn),-0.11 K
4,C#CCn1cnc2c(N)ncnc21,0.09 K
5,COc1ccc(C(NC(=O)C(C)NC(=O)C23CC4CC(CC(C4)C2)C3)c2ccccc2)cc1 (stereo not drawn),-0.07 K
6,C/C=C/CCN,0.03 K
7,CCC(NCc1cccc2cn[nH]c12)c1ccc2c(c1)OCCO2 (stereo not drawn),-0.23 K
8,CCn1cc(C2CS(=O)CCN2c2ncnc3c2oc2ccccc23)cn1 (stereo not drawn),-0.23 K
9,Nc1ccn([C@@H]2O[C@H](CO)[C@@H](O)[C@@H]2O)c(=O)n1,0.12 K
10,CCOC(=O)c1c(NC(=O)COC(=O)C23CC4CC(CC(Cl)(C4)C2)C3)sc(C(=O)N(CC)CC)c1C,0.08 K
11,O=C(O)c1ccc2[nH]c(=O)[nH]c2c1,-0.12 K
12,Cn1cc(CCC(=O)NCC(=O)O)c2ccccc21,-0.22 K
13,O=C(O)c1ccc(NC(=O)C2CC2c2ccco2)cc1 (stereo not drawn),-0.13 K
14,Cn1cc(S(=O)(=O)N2CCN(C(=O)CSCc3nc4ccccc4[nH]3)CC2)cc1C(N)=O,-0.04 K
15,CCc1nnc(N2CCC(n3cnc(C(N)=O)c3N)CC2)c(C#N)c1CC,-0.02 K
16,CCN1CCN(C(=O)CCNC(=O)/C=C/c2ccc(OC)cc2)CC1,0.02 K
17,CCc1cc2c(N3CCN(Cc4ccc5c(c4)OCO5)CC3)nc(C)nc2s1,-0.31 K
18,Cc1ccc(N(C)S(=O)(=O)c2cccc(C(=O)Nc3ccncc3)c2)cc1,-0.18 K
19,CC(C)Cc1ccc(C(NC(C)C(=O)Nc2ccc(C(N)=O)cc2)C(C)C)cc1 (stereo not drawn),-0.24 K
20,CC(=O)Nc1ccc(C(=O)Nc2cccc(S(=O)(=O)NCc3ccco3)c2)s1,-0.02 K

# Reprinted at random: 5 records from the list, in no set order.
row,SMILES,TSA(without NAD+) / Primary screening (TSA) / delta Tm (K)
8,CCn1cc(C2CS(=O)CCN2c2ncnc3c2oc2ccccc23)cn1 (stereo not drawn),-0.23 K
2,CC(C)C(NC(N)=O)C(=O)Nc1ccc(CCO)cc1 (stereo not drawn),-0.12 K
13,O=C(O)c1ccc(NC(=O)C2CC2c2ccco2)cc1 (stereo not drawn),-0.13 K
6,C/C=C/CCN,0.03 K
5,COc1ccc(C(NC(=O)C(C)NC(=O)C23CC4CC(CC(C4)C2)C3)c2ccccc2)cc1 (stereo not drawn),-0.07 K

# (more compounds)

row,SMILES,TSA(without NAD+) / Primary screening (TSA) / delta Tm (K)
1,COC(C)CCN (stereo not drawn),-0.12 K
2,Cc1ccc(CN(C)CC(=O)Nc2ccc3c(c2)OCCCO3)cc1,-0.12 K
3,CSc1cccc(N2CC(C(=O)OCC(N)=O)CC2=O)c1 (stereo not drawn),-0.27 K
4,O=C(Nc1ccccc1)C1CCN(C(=O)c2cccc(S(=O)(=O)NCc3ccccc3)c2)CC1,-0.13 K
5,NC(=S)c1ccc(C(=O)NC2CCC(O)CC2)cc1 (stereo not drawn),0.08 K
6,O=S(=O)(NCCNS(=O)(=O)c1cccs1)c1cccs1,-0.03 K
7,O=C(CSCC(=O)Nc1cccc2ccccc12)Nc1ccccc1F,-0.22 K
8,Cc1cccc(-c2ccc(C(=O)N3CCc4ccccc4C3)c(=O)[nH]2)c1,0.09 K
9,COc1ccc2[nH]c3c(N(C)C)ncnc3c2c1,-0.11 K
10,Cc1ccc2oc(=N)c3c(N)nc(-c4ccc5c(c4)OCO5)cc3c2c1,-0.04 K
11,CCC(=O)c1ccc(OCC(=O)NNC(=O)c2cc(C)oc2C)cc1,-0.04 K
12,Cc1cc(C)cc(OCC(=O)N2Cc3ccccc3CC2C(=O)O)c1 (stereo not drawn),-0.03 K
13,CCc1ccc(C(CO)NCc2cn3cc(Cl)ccc3n2)cc1 (stereo not drawn),-0.04 K
14,Cc1ccc2c(COc3ncnc4sc5c(c34)CCCC5)cc(=O)oc2c1,0.19 K
15,C=CCOc1ccc(C2C(C(=O)c3ccccc3)=C(O)C(=O)N2CCCN2CCOCC2)cc1 (stereo not drawn),0.03 K
16,O=C(O)C1CC(=O)N(c2cccc(-c3nc(C4CC4)no3)c2)C1 (stereo not drawn),0.03 K
17,CCCCNC(=O)CN1CCN(c2ncnc3cc(Cl)ccc23)CC1,-0.15 K
18,CN(c1cnccn1)S(=O)(=O)c1ccc2c(c1)C(C)(C)C(=O)N2,-0.15 K
19,Cc1nc(N2CCC(C(N)=O)CC2)c2c3c(sc2n1)CCCC3,0.56 K
20,COc1ccccc1C(=O)NC(CCSC)C(=O)NCCN1C(=O)S/C(=C/c2ccc3c(c2)OCO3)C1=O (stereo not drawn),-0.04 K

row,SMILES,TSA(without NAD+) / Primary screening (TSA) / delta Tm (K)
1,Cc1ccc2nc(-c3ccc(NC(=O)C(C)Cl)cc3)sc2c1 (stereo not drawn),0.22 K
2,Oc1ccccc1N1CCN(CCCc2cncc(F)c2)CC1,-0.08 K
3,COCC(C)C(=O)O (stereo not drawn),-0.13 K
4,NC(=O)c1cnc(NC(=O)Cc2cc3c(ccc4ccccc43)o2)s1,-0.03 K
5,CCCCn1c(COc2ccc(N(C)S(=O)(=O)c3ccc(C)cc3)cc2)nc2cc(S(N)(=O)=O)ccc21,-0.14 K
6,C=CCNC(=O)CN1CCN(c2ncnc3sc4c(c23)CCC4)CC1,0.08 K
7,CC(C)(C)OC(=O)N1CCC(CC(=O)Nc2ccccc2-c2nc3ccccc3[nH]2)CC1,0.02 K
8,O=C(COC(=O)C(Cc1ccccc1)NC(=O)c1ccccc1)NCC12CC3CC(CC(C3)C1)C2 (stereo not drawn),0.03 K
9,NC(=O)C(NC(=O)COc1ccc(C(=O)c2ccccc2)cc1)C(N)=O,0.06 K
10,OC1CCCCC1Nc1cnc2ccccc2n1 (stereo not drawn),-0.07 K
11,NC(=S)c1ccc(C(=O)NC2CCSc3c(F)cccc32)cc1 (stereo not drawn),-0.23 K
12,Cc1nc(-c2ccccn2)nc(N2CCCC(C(N)=O)C2)c1C (stereo not drawn),-0.12 K
13,COCCN(C)Cc1ccc(-c2cccc(F)c2C)o1,-0.24 K
14,Cc1ccc(-c2nn(-c3ccccc3)cc2C=C2C(=O)NC(=O)NC2=O)o1,-0.33 K
15,c1ccc(-c2[nH]c3ccccc3c2-c2ccccc2)cc1,0.45 K
16,COc1cccc(-c2noc(COC(=O)C3CCCN3C(=O)C34CC5CC(CC(C5)C3)C4)n2)c1 (stereo not drawn),0.08 K
17,Cc1ccc2nc(C)c(C(=O)Nc3cccc(-c4nnn[nH]4)c3)cc2c1,-0.12 K
18,CCOCC(O)CN (stereo not drawn),-0.12 K
19,CC1CCc2[nH]c3ccc(C(=O)Nc4cccc(S(=O)(=O)N(C)c5ccccc5)c4)cc3c2C1 (stereo not drawn),0.42 K
20,O=C(NNC1c2ccccc2-c2ccccc21)C1COc2ccccc2O1 (stereo not drawn),0.09 K
